PubChem BioAssay AID651640 (Broad Institute, 2012)
Among all 350,000 compounds or so, about 6,000 (1.7%) were called active. This list was built around the results that the source calls inconclusive (neither active nor inactive); the mix of calls is not that of the screen. Cut-off read from the data, not from the text of the source: active = CPE inhibition above about 20% (passing the limit was not always enough); inconclusive = no clear call, values can overlap the other calls; tested in BHK-21 cells.

assay: protection of cells from dengue 2 killing – plate reader, single concentration, primary screen (AID 651640); conditions: DENV2-infected cells, cytopathic effect rescue, at 9.99 µM, hits give high values;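 note: 0% = median of neutral control wells and 100% = median of positive control wells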

Compound | CPE inhibition
Cc1noc(C)c1NC(=O)Nc1ccc2c(c1)C(=O)N([C@H](C)CO)C[C@H](C)[C@H](CN(C)C(=O)Nc1cccc3ccccc13)OCCCC[C@H](C)O2 | inactive: 13%
OC[C@@H]1[C@@H](c2ccc(C#Cc3ccccc3F)cc2)[C@H]2CN(CC3CCOCC3)CCCCN12 | inactive: -25.6%
C#CNC(=O)C1(CC=C)CCNCC1 | inactive: -4.82%
CCC(CO)Oc1cc(NCc2ccccc2)c2ncn(C3CCCC3)c2c1 (stereo not drawn) | active: 64.4%
CC(Sc1nc(N)cc(=O)[nH]1)C(=O)NCC(=O)Nc1ccc(F)c(F)c1F (stereo not drawn) | inconclusive: 39.4%
Cc1ccc(NC(=O)c2sc(=S)n(-c3cc(C)ccc3F)c2N)cc1 | inactive: 5.47%
CC=Cc1ccc2n(c1=O)C[C@@H]1[C@@H](CO)[C@H](C(=O)NCC(F)(F)F)[C@H]2N1C(=O)C1CC1 (mixture of isomers) | inconclusive: 49.7%
c1ccc(-c2ccc3[nH]ccc3c2)cc1 | active: 87.5%
C[C@H](CO)N1C[C@H](C)[C@H](CN(C)Cc2ccc(-c3ccccc3)cc2)Oc2c(NC(=O)c3cnccn3)cccc2C1=O | inconclusive: 24.8%
C[C@H](CO)N1C[C@H](C)[C@@H](CN(C)Cc2ccccc2)Oc2ccc(NC(=O)NC3CCCCC3)cc2CC1=O | inactive: -10.4%
COc1cccc(CNC(=O)[C@@H]2CCCN2C(=O)[C@@H]2CCCN2C(=O)c2ccccc2)c1 | inconclusive: 39%
CC(=O)N1CCCCN2[C@H](CO)[C@@H](c3ccc(-c4ccncc4)cc3)[C@H]2C1 | inconclusive: 82.6%
COc1cccc(/C=N/Nc2nc3ccccc3n3cnnc23)c1O | inactive: 3.75%
COCC(=O)Nc1ccc2c(c1)[C@@H]1C[C@H](CC(=O)N3CCc4ccccc4C3)O[C@@H](CO)[C@@H]1O2 | inactive: 3.43%
C[C@H]1CN([C@@H](C)CO)C(=O)c2cc(NS(=O)(=O)c3ccc(Cl)cc3)ccc2O[C@H]1CN(C)S(=O)(=O)c1ccccc1 | inactive: -3.71%
C[C@H](CO)N1C[C@H](C)[C@H](CN(C)Cc2ccc(C(F)(F)F)cc2)Oc2ccc(NC(=O)Nc3ccc(C(F)(F)F)cc3)cc2C1=O | inconclusive: 23.5%
CC(C)NC(=O)N(C)C[C@@H]1Oc2ncc(C#CC3CC3)cc2C(=O)N([C@@H](C)CO)C[C@@H]1C | inactive: 0.392%
O=C(C[C@H]1CC[C@@H]2[C@H](COC[C@H](O)CN2CC2CCOCC2)O1)N1CCOCC1 | active: 48.8%
COc1ccc(S(=O)(=O)N2CCCCCC2)cc1C(=O)N(C)Cc1ccc(C(C)(C)C)cc1 | active: 58.7%
CN1CCN(CC(=O)Nc2ccccc2Oc2ccccc2)CC1 | inconclusive: 25.9%
Cc1nnc2ccc(-c3ccc(NS(=O)(=O)c4ccc(Cl)s4)cc3)nn12 | inactive: -3.72%
C[C@@H]1CN([C@H](C)CO)C(=O)c2cc(NC(=O)c3ccncc3)ccc2O[C@@H]1CN(C)C(=O)Nc1ccc2c(c1)OCO2 | inconclusive: 22%
C=C1CCN([C@H](C(=O)NCc2ccco2)C(C)C)S(=O)(=O)c2ccccc21 | inconclusive: 25.9%

Compound | CPE inhibition
CO[C@H]1CN(C)C(=O)c2cc(NC(C)=O)ccc2OC[C@@H](C)N(C(=O)CN(C)C)C[C@H]1C | inactive: 2.72%
CCc1cccc(C)c1NC(=O)c1cccnc1 | inconclusive: 21%
C[C@H]1CN([C@@H](C)CO)S(=O)(=O)c2ccc(C3=CCCC3)cc2O[C@@H]1CN(C)C(=O)CC1CC1 | active: 70.2%
COc1ccc(N=Nc2ccc3ccccc3c2)c(O)c1 | inconclusive: 25.4%
CO[C@@H]1CC[C@@H]2CCN(C)C(=O)CCCN(C)C(=O)c3cccc(C#N)c3OC[C@@H]1O2 | inactive: 3.35%
CCCNC(=O)C1(C)CCCN(C(=O)c2cc(C)n(C(C)(C)C)n2)C1 (stereo not drawn) | inconclusive: 29.5%
COc1ccc(S(=O)(=O)Nc2ccc3c(c2)CC(=O)N([C@H](C)CO)C[C@@H](C)[C@H](CN(C)C(=O)Nc2c(C)noc2C)O3)cc1 | inconclusive: 51.1%
CCOc1ccc(CN(C)CC(=O)Nc2cccc3ccccc23)cc1OC | inactive: 12.3%
CC1=CC(=O)CC(C)(C)C1(O)/C=C/C(C)=C/C(=O)O (stereo not drawn) | inconclusive: 40.7%
COC(=O)/C=C/c1cccc([C@H]2[C@@H]3C=CC[C@@H](C)[C@@H]3C(=O)N2Cc2ccccc2)c1 | inconclusive: 23.3%
COc1cccc(C(=O)Nc2ccc3c(c2)C(=O)N(C)C[C@@H](OC)[C@H](C)CN[C@H](C)CO3)c1 | inactive: -1.82%
C[C@H](CO)N1C[C@H](C)[C@H](CN(C)S(=O)(=O)c2ccc(F)cc2)Oc2ccc(NS(=O)(=O)c3ccccc3)cc2CC1=O | inactive: -4.45%
O=C(CCN1C(=O)/C(=C/c2ccc(Cl)cc2)SC1=S)Nc1cccnc1 | inconclusive: 25.5%
CC(=O)N1CC2(C1)[C@H](c1ccc(-c3ccc(C#N)cc3)cc1)[C@H](CO)N2CCC(F)(F)F | active: 33.3%
O=C(c1ccccn1)N1CC[C@@H]2[C@@H](CO)Nc3ccc(-c4ccccc4F)cc3[C@@H]21 | active: 21%
CCCCOc1ccc(C(=O)N(C)CC(=O)Nc2ccc(C)cc2)cc1 | inconclusive: 21.4%
COc1ccc2c3c([nH]c2c1)[C@H](CO)N(C(=O)Nc1ccccc1F)CC31CN(C(=O)c2ccccc2F)C1 | inactive: 1.33%
O=C(C[C@@H]1C/C=C\CCCC(=O)OC[C@@H]2CCCN2C1=O)N[C@H](CO)Cc1ccccc1 | inconclusive: 60.4%
CC1(Cc2ccccc2OC(F)(F)F)C(=O)Nc2ccc(-c3ccsc3)cc21 (stereo not drawn) | inconclusive: 25.4%
O=C(C(=O)N1CCN(C/C=C/c2ccccc2)CC1)c1ccccc1 | inactive: 4.93%
C[C@@H]1CN([C@@H](C)CO)C(=O)c2cc(NS(=O)(=O)c3cn(C)cn3)ccc2O[C@@H](C)CCCCO[C@@H]1CN(C)S(=O)(=O)c1ccc(F)cc1 | inactive: 6.73%
O=C(CCCCCCCC(=O)NNC(=O)Nc1ccccc1)NNC(=O)Nc1ccccc1 | active: 115%
CCC(=O)Nc1ccc2c(c1)C(=O)N(C)C[C@@H](OC)[C@H](C)CN(CCc1ccccc1)[C@H](C)CO2 | inactive: 5.04%

Looked up above.
CPE inhibition, CCOc1ccc(CN(C)CC(=O)Nc2cccc3ccccc23)cc1OC is entered as inactive: 12.3%
CPE inhibition, CC1(Cc2ccccc2OC(F)(F)F)C(=O)Nc2ccc(-c3ccsc3)cc21 (stereo not drawn) is entered as inconclusive: 25.4%
CPE inhibition, COC(=O)/C=C/c1cccc([C@H]2[C@@H]3C=CC[C@@H](C)[C@@H]3C(=O)N2Cc2ccccc2)c1 is entered as inconclusive: 23.3%
CPE inhibition, CO[C@@H]1CC[C@@H]2CCN(C)C(=O)CCCN(C)C(=O)c3cccc(C#N)c3OC[C@@H]1O2 is entered as inactive: 3.35%
CPE inhibition, O=C(CCN1C(=O)/C(=C/c2ccc(Cl)cc2)SC1=S)Nc1cccnc1 is entered as inconclusive: 25.5%

The list continues.

Compound | CPE inhibition
Cc1csc(-c2nc3ccccc3n2C(C)c2nc3ccccc3[nH]2)c1 (stereo not drawn) | inactive: 0.572%
COc1ccc(/C=N/Nc2nc3ccccc3c(=O)n2-c2ccccc2)cc1OC | inconclusive: 75.6%
Cc1ccc(S(=O)(=O)N(C)C[C@@H]2OCCCC[C@H](C)Oc3ccc(NS(=O)(=O)c4c(C)noc4C)cc3C(=O)N([C@H](C)CO)C[C@H]2C)cc1 | active: 112%
CCNC(=O)/C=C/c1ccccc1[N+](=O)[O-] | inactive: -3.29%
[N-]=[N+]=NCc1ccccc1C[C@]1(C(N)=O)N=C(c2ccc(OCCCO)cc2)O[C@H]1c1ccccc1 | active: 24.9%
COc1ccc(NC(=O)Nc2cccc3c2O[C@@H](CN(C)S(C)(=O)=O)[C@H](C)CN([C@H](C)CO)C3=O)cc1 | inconclusive: 42.4%
Cc1ccc(SCC(=O)NCCc2ccccc2)cc1 | inactive: -3.97%
C[C@@H]1CN([C@@H](C)CO)S(=O)(=O)c2ccc(C3=CCCCC3)cc2O[C@@H]1CN(C)C(=O)C1CCOCC1 | inconclusive: 39.4%
COCCOC(=O)N1C(=O)[C@@]2(c3cc(C#Cc4ccc(OC)cc4)ccc31)[C@H](c1ccc(OCCO)cc1)N1[C@H](c3ccccc3)[C@H](c3ccccc3)OC(=O)[C@H]1[C@@H]2C(=O)N1CCN(c2ncccn2)CC1 | inconclusive: 20.7%
C[C@@H]1CCCCO[C@@H](CN(C)S(=O)(=O)c2ccc(F)cc2)[C@H](C)CN([C@@H](C)CO)C(=O)c2cc(NC(=O)CCCN(C)C)ccc2O1 | active: 21.3%
CCOC(=O)C1(Cc2cccc(OC)c2)CCCN(Cc2cc(C(C)C)n[nH]2)C1 (stereo not drawn) | inactive: 15.2%
COc1cc(C)c(NC(=O)c2cc(C3CC3)nc3c2cnn3C(C)C)cc1OC | inconclusive: 26.1%
COc1ccc2c3c(n(C)c2c1)[C@H](CO)N(Cc1ccccc1)CC31CCN(C(=O)c2ccccc2F)CC1 | inconclusive: 21.2%
CNC[C@@H]1Oc2ncc(-c3cccc(C(=O)N(C)C)c3)cc2C(=O)N([C@@H](C)CO)C[C@H]1C | inconclusive: 31.6%
COc1cc(-c2cc(C(=O)Nc3c(Cl)cc(Cl)cc3Cl)c3ccccc3n2)cc(OC)c1OC | inactive: 1.77%
N#CCC(=O)Nc1ccc(C(=O)OCC(=O)NNC(=O)c2ccc(Cl)cc2)cc1 | inconclusive: 69.8%
CCC1(O)C(=O)OCc2c1cc1n(c2=O)Cc2cc3cc(O)ccc3nc2-1 (stereo not drawn) | inconclusive: 23.2%
Fc1ccc(CN2[C@@H]3CNC[C@H]2C3c2ccc(-c3ccccc3)cc2)cc1 (stereo partly drawn) | inconclusive: 21.5%
CCCC(=O)N1CC2(C1)CN(Cc1ccc(Cl)cc1)[C@@H](CO)c1[nH]c3cc(OC)ccc3c12 | inconclusive: 23.9%
C[C@@H]1CN([C@H](C)CO)C(=O)Cc2cc(NS(=O)(=O)c3ccccc3)ccc2O[C@@H]1CN(C)Cc1ccc(C(=O)O)cc1 | inactive: 6.78%
COc1ccc(CN(C)C[C@H]2Oc3c(NC(=O)c4ccc(-c5nccs5)cc4)cccc3C(=O)N([C@@H](C)CO)C[C@@H]2C)cc1 | active: 22%
C[C@@H]1CCCCO[C@@H](CN(C)C(=O)Cc2ccccc2)[C@@H](C)CN([C@@H](C)CO)C(=O)c2cc(NC(=O)CCCN(C)C)ccc2O1 | inconclusive: 33.6%
